{"source": "patent US20230139445A1", "about": "“BACTERIAL CELLS WITH IMPROVED TOLERANCE TO DIACIDS” (priority 2016, published 2023)", "key": {"[1]": {"test_system": "Escherichia coli K-12 MG1655", "experiment": "Growth of K-12 MG1655 in varying concentrations of fumaric, itaconic, malic and succinic acid, Growth Profiler", "format": "cell-based", "conditions": "45 g/L fumaric, 45 g/L itaconic, 55 g/L malic, 50 g/L succinic acid; uninhibited 0.7-0.9 h^−1", "protocol": "Five colonies from wild-type K-12 MG1655 and 10 individual colonies deriving from each population were inoculated into 300 μL M9+1% glucose in 96 well deepwell plates and incubated in a 300 rpm plate shaker at 37° C. The next day, cells were diluted 10× in M9+1% glucose and 30 μL was transferred into clear-bottomed 96 well half-deepwell plates (with rectangular wells) containing M9+1% glucose and M9+1% glucose+52.78 g/L glutaric acid or 55.56 g/L adipic acid, such that the final concentration of glutaric acid or adipic acid was 47.5 g/L or 50 g/L, respectively. In addition, cryogenic glycerol stocks of the overnight culture were saved in a 96 well plate format. Half deepwell plates were incubated at 37° C. with 225 rpm shaking in a Growth Profiler (Enzyscreen), with optical scans of the plates taken at 15 minute intervals. Green pixel values integrated over a 1 mm diameter circular area in each well were converted to OD600 values using a previously determined calibration between OD600 and green pixel values.\nAdditionally, each evolved isolate was tested for cross-tolerance toward other dicarboxylic acids of interest. […] All diacids tested were either the neutral sodium salts, or the free diacid was neutralized with sodium hydroxide to pH 7.0 for testing."}, "[2]": {"test_system": "Escherichia coli K-12 MG1655", "experiment": "Screening for tolerance in wild-type cells: growth in varying concentrations of neutralized diacid, Biolector", "format": "cell-based", "conditions": "45 g/L pimelic acid, 38 g/L sebacic acid; range tested in Biolector format", "protocol": "Escherichia coli K-12 MG1655 was grown overnight in M9 minimal medium+1% glucose and subcultured the following morning to an initial OD600 of 0.05 in M9+1% glucose. Cells were grown to mid-exponential phase (OD600 0.7-1.0) and were back-diluted with fresh medium to an OD600 of 0.7. The diluted cells were used to inoculate M9+1% glucose containing varying concentrations of glutaric acid or adipic acid which were neutralized to pH 7.0 with sodium hydroxide, and growth was measured in FlowerPlates in a Biolector microbioreactor system (m2p-labs) at 37° C. with 1000 rpm shaking. The culture volume in each well was 1.4 mL."}}, "note": "Some of these results come from one statement about several compounds together. Some ranges recur; such a range may be that of the whole group of compounds.", "data": [{"compound": "O=C(O)CC(O)C(=O)O", "note": "(centres unmarked) [malic acid]", "values": [{"measurement": "growth rate of wild-type cells at the selected screening concentration", "setting": "[1]", "value": "0.15 to 0.3", "unit": "h⁻¹"}]}, {"compound": "C=C(CC(=O)O)C(=O)O", "note": "[itaconic acid]", "values": [{"measurement": "growth rate of wild-type cells at the selected screening concentration", "setting": "[1]", "value": "0.15 to 0.3", "unit": "h⁻¹"}]}, {"compound": "O=C(O)/C=C/C(=O)O", "note": "[fumaric acid]", "values": [{"measurement": "growth rate of wild-type cells at the selected screening concentration", "setting": "[1]", "value": "0.15 to 0.3", "unit": "h⁻¹"}]}, {"compound": "O=C(O)CCCCCC(=O)O", "note": "[pimelic acid]", "values": [{"measurement": "growth rate of wild-type cells at the selected screening concentration", "setting": "[2]", "value": "0.15 to 0.3", "unit": "h⁻¹"}]}, {"compound": "O=C(O)CCCCCCCCC(=O)O", "note": "[sebacic acid]", "values": [{"measurement": "growth rate of wild-type cells at the selected screening concentration", "setting": "[2]", "value": "0.15 to 0.3", "unit": "h⁻¹"}]}]}
